Library screen at single concentrations

T. brucei: 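Whole-parasite assay of Trypanosoma brucei over 72 hours; the read-out is not stated. Compounds at 30 µM. Direction is inferred from retests: higher values go with stronger inhibition. Values scatter widely below zero; nearly all retest evidence comes from the higher of the two concentrations used. Size under these conditions: about 64,000 compounds, about 940 of them at 50% or above in at least one test.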
Toxoplasma: 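Assay of Toxoplasma gondii numbers, read through their beta-galactosidase reporter with a colour substrate. Tested at 10 µM. Higher reads as fewer parasites (inferred from which compounds were picked for retests). Size under these conditions: about 67,000 compounds, about 260 of them at 50% or above in at least one test.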

Each number is a percent effect as filed.
How 0% and 100% were set is not recorded. Most values in the screen are low, and negative values occur.
Compounds were drawn at random from those tested, without regard to their results.

{"smiles": "CCCOc1cc(Cl)c(CN2CCNC(C(=O)NC3CC3)C2)cc1OC", "stereo": "stereo not given", "Toxoplasma": -16.32}
{"smiles": "O=C1CC(NCc2cnc(-c3cccs3)nc2)CN1c1ccccc1", "stereo": "stereo not given", "T. brucei": -10.22, "Toxoplasma": 5.405}
{"smiles": "O=c1ccc(-n2ccnc2)nn1CCNS(=O)(=O)c1ccc(Cl)s1", "T. brucei": 3.094, "Toxoplasma": -11.71}
{"smiles": "O=C(CCNC(=O)C1CCCC1)NCc1ccccc1Cn1ccnc1", "T. brucei": 16.46, "Toxoplasma": -8.634}
{"smiles": "O=C(O)C(F)(F)F.O=C(O)C(F)(F)F.[H][C@@]12CN(Cc3cccnc3)CCO[C@]1([H])CN(C(C)=O)C2", "T. brucei": 43.12, "Toxoplasma": 1.843}
{"smiles": "CCc1nc(C2CCCN2C(=O)c2ccc3c(c2)nnn3C)no1", "stereo": "stereo not given", "T. brucei": -22.91, "Toxoplasma": -8.447}
{"smiles": "CC(=O)N1CCC(c2ncc(C(=O)Nc3ccccc3)c(C)n2)CC1", "T. brucei": -5.131, "Toxoplasma": -23.12}
{"smiles": "N#Cc1cccc(C(=O)NC2CCc3c(ccc(=O)n3CC3CC3)C2)c1", "stereo": "stereo not given", "T. brucei": -5.457, "Toxoplasma": 9.088}
{"smiles": "Cc1cc(NC(=O)CN2CCCC2c2noc(C(C)C)n2)n(C)n1", "stereo": "stereo not given", "T. brucei": -13.27, "Toxoplasma": 2.311}
{"smiles": "COc1ccnc(N2CCN(C(=O)c3csc(C)n3)CC2)n1", "T. brucei": -22.16, "Toxoplasma": 2.029}
{"smiles": "O=C(CSC1CCCC1)N1CCN(C(=O)C2CC2c2ccccc2)CC1", "stereo": "stereo not given", "T. brucei": 29.1, "Toxoplasma": 11.51}
{"smiles": "Cn1cc(C(=O)N2CCN(c3ncccn3)CC2)ccc1=O", "T. brucei": 1.183, "Toxoplasma": -1.332}
{"smiles": "CCC(CC)NC(=O)c1ccc2c(c1)C(c1nc[nH]n1)CN2S(C)(=O)=O", "stereo": "stereo not given", "T. brucei": -14.97, "Toxoplasma": -61.07}
{"smiles": "CCOC(C)C(=O)N1CCCN(Cc2csc(CC)n2)CC1", "stereo": "stereo not given", "T. brucei": -7.612, "Toxoplasma": -9.438}
{"smiles": "CCN1CCN(Cc2nc(Cc3ccccc3)n[nH]2)CC1", "T. brucei": -50.83, "Toxoplasma": 8.02}
{"smiles": "Cc1ccc(-c2ccccc2CC2CNCCNC2=O)c(C)c1.Cl", "stereo": "stereo not given", "T. brucei": 25.6, "Toxoplasma": 34.53}
{"smiles": "[H][C@@]12CCN(C(=O)c3ccnnc3)C[C@@]1([H])O[C@@H](c1nc(C)c(C)s1)C2", "T. brucei": -46.54, "Toxoplasma": -1.354}
{"smiles": "NCC1Cn2nnc(-c3cccc(F)c3)c2CO1", "stereo": "stereo not given", "T. brucei": 15.25, "Toxoplasma": -2.403}
{"smiles": "CS(=O)(=O)N1CCc2nc(NC(=O)Nc3c(F)cccc3F)sc2C1", "T. brucei": -132.4, "Toxoplasma": -0.5473}
{"smiles": "Cc1ccoc1C(=O)N1CCCC2(CCCN2S(C)(=O)=O)C1", "stereo": "stereo not given", "T. brucei": -49.32, "Toxoplasma": 3.542}
{"smiles": "CN1C(=O)CC(C(=O)O)C12CCN(Cc1ccc(Cl)c(F)c1)CC2", "stereo": "stereo not given", "T. brucei": -125.7, "Toxoplasma": -10.82}
{"smiles": "CC(c1nc(-c2cccnc2)no1)N(C)CCCOc1ccccc1", "stereo": "stereo not given", "T. brucei": -36.35, "Toxoplasma": 2.639}
{"smiles": "CCCn1nc(C(=O)N(C)Cc2cnn(C)c2)ccc1=O", "T. brucei": -36.37, "Toxoplasma": 1.273}
{"smiles": "O=C1CNc2ncnc(N3CCN(Cc4cccc(F)c4)CC3)c2N1", "T. brucei": -53.35, "Toxoplasma": -33.87}
{"smiles": "COc1cc(F)c(C(=O)N2C[C@@H](CN(C)CCO)[C@@H](CO)C2)c(F)c1", "T. brucei": -49.82, "Toxoplasma": 4.181}
{"smiles": "CCn1nc2c(cc1=O)CN(CC1CCCCO1)CC2", "stereo": "stereo not given", "T. brucei": -33.9, "Toxoplasma": -5.829}

The first 2 entries again:

CCCOc1cc(Cl)c(CN2CCNC(C(=O)NC3CC3)C2)cc1OC (stereo not given) gave Toxoplasma: -16.32%.
O=C1CC(NCc2cnc(-c3cccs3)nc2)CN1c1ccccc1 (stereo not given) gave T. brucei: -10.22%; Toxoplasma: 5.405%.

From ChEMBL document CHEMBL3988442, “University of Dundee, Small-Polar-MMV Screening Library” (2021).